From PubChem BioAssay record AID893 (NCATS, 2007).

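Inhibition of a His-tagged, E. coli-produced human HSD17B10 is judged by how it slows the gain in NADH fluorescence from NAD+ reduction.
Each compound was run as a 15-point series from about 0.0007 to 57 µM.
Fitted half-maximal potency (AC50) from the inhibition curve; a lower value means a more potent inhibitor. The record's title names HSD17B4; its protocol and target entry give this enzyme.
Active means a well-fitted inhibition curve with a large enough effect; inconclusive means a weak, poorly fitted or top-concentration-only effect.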

Values are in µM.
Only part of the assay is shown, chiefly results filed as inconclusive.
A potency from a partial, single-point or poor curve is only a rough figure.

COc1cccc(C2C=C(c3ccc(OC)cc3OC)Nc3nnnn32)c1 (stereo not drawn) read fitted potency 31.62 µM (inconclusive; inhibitor, single point). With COC(=O)CC1=C(C(=O)OC)C2(C(=O)Nc3c(C)cccc32)C(C#N)=C(N)O1 (stereo not drawn) the assay gave fitted potency 39.81 µM (inconclusive; inhibitor, single point). Cc1cc(-c2nnc(-c3cc4ccccc4oc3=O)o2)c(C)n1-c1ccccc1 gave fitted potency 31.62 µM (inconclusive; inhibitor, single point). With Cc1ccc2cc(C#N)c(N3CCCN(S(=O)(=O)c4ccccc4)CC3)nc2c1 the assay gave fitted potency 31.62 µM (inconclusive; inhibitor, single point).

Result for Cc1ccc(-n2nc3ccc(N)cc3n2)cc1 was fitted potency 25.12 µM (active). With CCOC(=O)c1sc2c(c1C)C(c1cccs1)C1=C(CCCC1=O)N2 (stereo not drawn) the assay gave fitted potency 25.12 µM (active). Result for Cc1cc2c3nonc3ccc2n1C was fitted potency 31.62 µM (inconclusive; inhibitor, single point). Cc1nc2cnc(Nc3ccccc3)nc2n(Cc2cccs2)c1=O gave fitted potency 25.12 µM (inconclusive; inhibitor, single point).

With CN(C)c1ncc2ncc(=O)n(CCC#N)c2n1 the assay gave fitted potency 39.81 µM (inconclusive; inhibitor, single point). CCOC(=O)C1CCN(c2nc3cc(OC)ccc3cc2C#N)CC1 read fitted potency 25.12 µM (inconclusive; inhibitor, single point). For Cc1ccc(C(=O)/C=C/Nc2ccccc2C(N)=O)o1 the result was fitted potency 31.62 µM (inconclusive; inhibitor, single point). COc1ccc(N2CSC3=C(C#N)C(c4cc(OC)c(OC)cc4OC)CC(=O)N3C2)c(OC)c1 (stereo not drawn) read fitted potency 31.62 µM (inconclusive; inhibitor, single point).

O=c1c(CCc2ccccc2)nc2cnc(Nc3ccccc3)nc2n1C[C@H]1CCCO1 gave fitted potency 39.81 µM (inconclusive; inhibitor, single point). With CCCn1c(=NC(C)=O)c(C#N)cc2c(=O)n3cccc(C)c3nc21 the assay gave fitted potency 3.162 µM (active). Result for O=C(/C=C/c1ccc(O)c(O)c1)O[C@@H]1C[C@@](O)(C(=O)O)C[C@H](O)[C@@H]1O was fitted potency 39.81 µM (inconclusive; inhibitor, single point). Result for COc1cc(CNC(=O)CCCC/C=C/C(C)C)ccc1O was fitted potency 31.62 µM (inconclusive; inhibitor, single point).

With CCOC(=O)CCc1c(C)c2ccc(O)cc2oc1=O the assay gave fitted potency 3.981 µM (active). Result for O=C(c1cc2nc(-c3ccccc3)cc(-c3ccccc3)n2n1)N1CCN(C(=O)c2ccco2)CC1 was fitted potency 31.62 µM (inconclusive; inhibitor, single point).

For reference, 2 entries once more:

Cc1cc2c3nonc3ccc2n1C read fitted potency 31.62 µM (inconclusive; inhibitor, single point).
Cc1ccc(-n2nc3ccc(N)cc3n2)cc1 read fitted potency 25.12 µM (active).